By UniProt entry, the sequences of proteins in these tests, tags left out. Where a name states a change or a piece, a line headed by the entry shows the natural chain unless it says otherwise.
UniProt O14656: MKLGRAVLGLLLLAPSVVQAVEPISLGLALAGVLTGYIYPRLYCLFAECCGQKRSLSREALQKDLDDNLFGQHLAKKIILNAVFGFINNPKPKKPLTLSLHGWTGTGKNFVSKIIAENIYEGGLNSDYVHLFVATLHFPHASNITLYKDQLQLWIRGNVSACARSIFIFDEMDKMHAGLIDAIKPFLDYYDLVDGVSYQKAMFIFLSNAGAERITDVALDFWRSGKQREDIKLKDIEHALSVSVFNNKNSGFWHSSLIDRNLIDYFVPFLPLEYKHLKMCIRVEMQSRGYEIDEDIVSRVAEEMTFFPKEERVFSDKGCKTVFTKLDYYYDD
UniProt P39685: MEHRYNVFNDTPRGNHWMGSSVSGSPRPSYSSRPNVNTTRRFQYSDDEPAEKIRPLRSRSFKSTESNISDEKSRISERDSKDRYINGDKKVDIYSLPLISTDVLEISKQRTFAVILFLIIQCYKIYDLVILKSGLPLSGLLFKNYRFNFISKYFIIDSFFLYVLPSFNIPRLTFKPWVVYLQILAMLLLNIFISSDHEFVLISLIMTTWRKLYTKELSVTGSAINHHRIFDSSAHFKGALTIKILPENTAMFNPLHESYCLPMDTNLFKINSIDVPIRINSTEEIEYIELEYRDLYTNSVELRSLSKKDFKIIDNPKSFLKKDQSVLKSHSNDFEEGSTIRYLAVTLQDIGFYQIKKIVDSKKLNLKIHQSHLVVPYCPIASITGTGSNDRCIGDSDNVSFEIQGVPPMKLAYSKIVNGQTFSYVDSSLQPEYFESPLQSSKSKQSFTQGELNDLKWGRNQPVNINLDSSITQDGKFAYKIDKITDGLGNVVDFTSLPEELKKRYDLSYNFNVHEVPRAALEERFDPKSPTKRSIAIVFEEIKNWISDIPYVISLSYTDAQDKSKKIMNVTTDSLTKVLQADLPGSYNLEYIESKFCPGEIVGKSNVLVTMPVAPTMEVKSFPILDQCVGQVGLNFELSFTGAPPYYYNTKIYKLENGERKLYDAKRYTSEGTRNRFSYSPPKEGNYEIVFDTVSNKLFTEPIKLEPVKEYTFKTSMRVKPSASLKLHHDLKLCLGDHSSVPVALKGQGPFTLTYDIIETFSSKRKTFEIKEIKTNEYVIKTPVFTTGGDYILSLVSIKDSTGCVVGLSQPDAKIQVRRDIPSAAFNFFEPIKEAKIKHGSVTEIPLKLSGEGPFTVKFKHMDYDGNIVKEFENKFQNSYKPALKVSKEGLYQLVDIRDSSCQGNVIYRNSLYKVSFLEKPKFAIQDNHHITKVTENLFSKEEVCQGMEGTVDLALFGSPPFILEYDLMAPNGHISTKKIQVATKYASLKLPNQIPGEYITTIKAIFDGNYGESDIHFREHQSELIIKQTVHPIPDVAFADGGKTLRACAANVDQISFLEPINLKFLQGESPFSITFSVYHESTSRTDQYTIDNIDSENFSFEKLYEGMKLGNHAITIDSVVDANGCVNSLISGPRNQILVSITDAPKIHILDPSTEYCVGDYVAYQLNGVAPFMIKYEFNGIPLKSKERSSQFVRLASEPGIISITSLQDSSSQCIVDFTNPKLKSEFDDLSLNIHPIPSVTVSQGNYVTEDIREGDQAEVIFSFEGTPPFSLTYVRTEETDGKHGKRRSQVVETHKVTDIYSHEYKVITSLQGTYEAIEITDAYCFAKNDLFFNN

According to paper doi:10.1101/421909:

Molecular target: TorsinA-ΔE-GFP (human) (UniProt O14656)
Test: co-IP

Molecule | binding
Pom152 (from UniProt P39685 1-1337) | no binding
Mps3-HA (protein, UniProt P47069 1-682) MNNSNEHRREEAGAANEQMPYNKAVKSAYADVLKDKMNREQEISLRAIKKGIYTDGGETDNYDMDKENDSAYEMFKKNLDFPLDQHNDDDDDDPYIEDNGQETDGYSDEDYTDEADKSFIEDSDSDSYDLESNSDFEENLESSGEAKKLKWRTYIFYGGLFFVFYFFGSFLMTTVKNNDLESHSSGATSSPGKSFSNLQKQVNHLYSELSKRDEKHSSELDKTVKIIVSQFEKNIKRLLPSNLVNFENDINSLTKQVETISTSMSELQRRNHKFTVENVTQWQDQLVKQLDTHLPQEIPVVINNSSSLLIIPELHNYLSALISDVIESPGIGTAGSAESRWEYDLNRYVKEILSNELQYIDKDYFIQEMNRRLQSNKQEIWEEITNRLETQQQQQQQQVQQDYSNVPQQYSSILMKRLIHQIYNSNQHQWEDDLDFATYVQGTKLLNHLTSPTWRQGSGVQPIELLTDSKQSSSTYWQCENEPGCSWAIRFKTPLYLTKISYMHGRFTNNLHIMNSAPRLISLYVKLSQTKEIKALQTLANQYGFGQHHKRDRNYIKIAKFEYRLTDSRIRQQMYLPPWFIQLKPLVRSIVFQVDENYGNKKFISLRKFIINGVTPQDLQIIENNEFPVLLGDTPEYGVTQNTDEGKRKVLLSKPPYASSSTSTKFHPASNVPSFGQDELDQ | binds

These are yes or no findings as the source states them, for the method shown. In cells and extracts the contact can be indirect. Binding calls can cover weak binding; strength is not graded here. Where a sequence is shown, tags or fusion partners need not be part of it.
